In patent US10159726B2, “Peptides, combination of peptides and scaffolds for use in immunotherapeutic treatment of various cancers” (Immatics Biotechnologies GmbH, priority 2015, dated 2018):
For some assays here: Expression grades refer to the transcript from which the peptide derives; gene names, where given, were looked up from the sequence.

Legend:
Set-up in all cases: species or system human
[1] = test system: source genes of selected peptides; assay: Target coverage of source genes in tumor entities based on TCGA Research Network data; conditions: over-expressed = more than 2-fold above the highest 75% percentile of normal organs; for Target coverage, over-expression category of source gene, KICH (N = 66): Kidney chromophobe; for Target coverage, over-expression category of source gene, DLBC (N = 48): Lymphoid neoplasm diffuse large B-cell lymphoma; for Target coverage, over-expression category of source gene, BLCA (N = 408): Bladder urothelial carcinoma; for Target coverage, over-expression category of source gene, CESC (N = 307): Cervical squamous cell carcinoma and endocervical adenocarcinoma; for Target coverage, over-expression category of source gene, CHOL (N = 36): Cholangiocarcinoma; for Target coverage, over-expression category of source gene, HNSC (N = 521): Head and neck squamous cell carcinoma; for Target coverage, over-expression category of source gene, MESO (N = 87): Mesothelioma; for Target coverage, over-expression category of source gene, ACC (N = 79): Adrenocortical carcinoma; for Target coverage, over-expression category of source gene, LGG (N = 534): Lower grade glioma
[2] = test system: HLA-A*24 molecules of primary tumors; assay: Identification and relative LC-MS quantitation of HLA-A*24 tumor-associated peptides presented on tissue samples (XPRESIDENT presentation profiles); conditions: for ENTITIES: Table 9A: selected HLA-A*24-binding tumor-associated peptides, cancer entities on which the peptide was found presented
[3] = test system: source genes of selected peptides; assay: Expression profiling of source genes by in-house RNAseq, tumor vs normal tissues (target coverage)

## 129: peptide found in MOB1A (gene looked up) (KYIDYLMTW; listed as Homo sapiens) [compound 129]
[1]
  Target coverage, over-expression category of source gene, KICH (N = 66): B (>=20% of tumors above the cutoff, but <50%)
  Target coverage, over-expression category of source gene, DLBC (N = 48): B (>=20% of tumors above the cutoff, but <50%)
[2]
  ENTITIES: NSCLC, GC, GB, PCA, HCC

## 130: peptide found in MOB1A (gene looked up) (VYAHIYHQHF; listed as Homo sapiens) [compound 130]
[1]
  Target coverage, over-expression category of source gene, KICH (N = 66): B (>=20% of tumors above the cutoff, but <50%)
  Target coverage, over-expression category of source gene, DLBC (N = 48): B (>=20% of tumors above the cutoff, but <50%)
[2]
  ENTITIES: NSCLC, GC, PCA, HCC

## 188: peptide found in SLC28A3 (gene looked up) (GYKTFFNEF; listed as Homo sapiens) [compound 188]
[1]
  Target coverage, over-expression category of source gene, BLCA (N = 408): C (>=5% of tumors above the cutoff, but <20%)
  Target coverage, over-expression category of source gene, CESC (N = 307): B (>=20% of tumors above the cutoff, but <50%)
  Target coverage, over-expression category of source gene, CHOL (N = 36): B (>=20% of tumors above the cutoff, but <50%)
  Target coverage, over-expression category of source gene, HNSC (N = 521): B (>=20% of tumors above the cutoff, but <50%)
  Target coverage, over-expression category of source gene, MESO (N = 87): B (>=20% of tumors above the cutoff, but <50%)
[2]
  ENTITIES: NSCLC

## 202: peptide found in ALOX15 (gene looked up) (RYVEGIVSL; listed as Homo sapiens) [compound 202]
[1]
  Target coverage, over-expression category of source gene, CESC (N = 307): C (>=5% of tumors above the cutoff, but <20%)
[2]
  ENTITIES: NSCLC

## 253: peptide found in NPFFR2 (gene looked up) (IYGFFNENF; listed as Homo sapiens) [compound 253]
[1]
  Target coverage, over-expression category of source gene, BLCA (N = 408): C (>=5% of tumors above the cutoff, but <20%)
  Target coverage, over-expression category of source gene, MESO (N = 87): B (>=20% of tumors above the cutoff, but <50%)
[1]; Pheochromocytoma and paraganglioma
  Target coverage, over-expression category of source gene, PCPG (N = 184): B (>=20% of tumors above the cutoff, but <50%)
[2]
  ENTITIES: HCC

## 350: peptide found in GTPBP10 (gene looked up) (KYGNFIDKL; listed as Homo sapiens) [compound 350]
[3]; AML (N = 7), share of tumors with more than 1.5-fold higher expression than highest relevant normal tissue, in-house RNASeq
  Target coverage, over-expression of source gene, AML: I (<19% over-expression = I)
[3]; BRCA (N = 10), share of tumors with more than 1.5-fold higher expression than highest relevant normal tissue, in-house RNASeq
  Target coverage, over-expression of source gene, BRCA: I (<19% over-expression = I)
[3]; CLL (N = 10), share of tumors with more than 1.5-fold higher expression than highest relevant normal tissue, in-house RNASeq
  Target coverage, over-expression of source gene, CLL: I (<19% over-expression = I)
[3]; CRC (N = 20), share of tumors with more than 1.5-fold higher expression than highest relevant normal tissue, in-house RNASeq
  Target coverage, over-expression of source gene, CRC: I (<19% over-expression = I)
[3]; GB (N = 24), share of tumors with more than 1.5-fold higher expression than highest relevant normal tissue, in-house RNASeq
  Target coverage, over-expression of source gene, GB: I (<19% over-expression = I)
[3]; HCC (N = 15), share of tumors with more than 1.5-fold higher expression than highest relevant normal tissue, in-house RNASeq
  Target coverage, over-expression of source gene, HCC: I (<19% over-expression = I)
[3]; OC (N = 12), share of tumors with more than 1.5-fold higher expression than highest relevant normal tissue, in-house RNASeq
  Target coverage, over-expression of source gene, OC: II (20-49% = II)
[3]; OSCAR (N = 11), share of tumors with more than 1.5-fold higher expression than highest relevant normal tissue, in-house RNASeq
  Target coverage, over-expression of source gene, OSCAR: I (<19% over-expression = I)
[3]; PC (N = 26), share of tumors with more than 1.5-fold higher expression than highest relevant normal tissue, in-house RNASeq
  Target coverage, over-expression of source gene, PC: I (<19% over-expression = I)
[3]; RCC (N = 10), share of tumors with more than 1.5-fold higher expression than highest relevant normal tissue, in-house RNASeq
  Target coverage, over-expression of source gene, RCC: I (<19% over-expression = I)
[3]; SCLC (N = 10), share of tumors with more than 1.5-fold higher expression than highest relevant normal tissue, in-house RNASeq
  Target coverage, over-expression of source gene, SCLC: I (<19% over-expression = I)
[3]; gallbladder adenocarcinoma and cholangiocarcinoma, share of tumors with more than 1.5-fold higher expression than the highest-expressing relevant normal tissue, in-house RNAseq
  Target coverage for source genes of selected peptides, GBC_CCC (N = 10): I (<19% over-expression = I)
[3]; gastric cancer, share of tumors with more than 1.5-fold higher expression than the highest-expressing relevant normal tissue, in-house RNAseq
  Target coverage for source genes of selected peptides, GC (N = 11): I (<19% over-expression = I)
[3]; head and neck small cell carcinoma, share of tumors with more than 1.5-fold higher expression than the highest-expressing relevant normal tissue, in-house RNAseq
  Target coverage for source genes of selected peptides, HNSCC (N = 10): I (<19% over-expression = I)
[3]; melanoma, share of tumors with more than 1.5-fold higher expression than the highest-expressing relevant normal tissue, in-house RNAseq
  Target coverage for source genes of selected peptides, MEL (N = 10): I (<19% over-expression = I)
[3]; non-Hodgkin lymphoma, share of tumors with more than 1.5-fold higher expression than the highest-expressing relevant normal tissue, in-house RNAseq
  Target coverage for source genes of selected peptides, NHL (N = 10): I (<19% over-expression = I)
[3]; pNSCLC (N = 11), share of tumors with more than 1.5-fold higher expression than highest relevant normal tissue, in-house RNASeq
  Target coverage, over-expression of source gene, pNSCLC: I (<19% over-expression = I)
[3]; prostate cancer and benign prostate hyperplasia, share of tumors with more than 1.5-fold higher expression than the highest-expressing relevant normal tissue, in-house RNAseq
  Target coverage for source genes of selected peptides, PCA (n = 10): I (<19% over-expression = I)
[3]; urinary bladder cancer, share of tumors with more than 1.5-fold higher expression than the highest-expressing relevant normal tissue, in-house RNAseq
  Target coverage for source genes of selected peptides, UBC (N = 10): I (<19% over-expression = I)
[3]; uterine cancer, share of tumors with more than 1.5-fold higher expression than the highest-expressing relevant normal tissue, in-house RNAseq
  Target coverage for source genes of selected peptides, UTC (N = 10): I (<19% over-expression = I)
[2]
  ENTITIES: NSCLC, GC, HCC
[2]; Table 9B: selected HLA-A*24 peptides, presentation on additional cancer entities
  Peptide Presentation on cancer entities: PCA

## 369: peptide found in CDK1 (gene looked up) (VYTHEVVTL; listed as Homo sapiens) [compound 369]
[1]
  Target coverage, over-expression category of source gene, ACC (N = 79): C (>=5% of tumors above the cutoff, but <20%)
  Target coverage, over-expression category of source gene, BLCA (N = 408): B (>=20% of tumors above the cutoff, but <50%)
  Target coverage, over-expression category of source gene, CESC (N = 307): A (>=50% of tumors above the cutoff)
  Target coverage, over-expression category of source gene, HNSC (N = 521): B (>=20% of tumors above the cutoff, but <50%)
  Target coverage, over-expression category of source gene, DLBC (N = 48): B (>=20% of tumors above the cutoff, but <50%)
[2]
  ENTITIES: NSCLC

## 391: peptide found in CDK1 (gene looked up) (LYQILQGIVF; listed as Homo sapiens) [compound 391]
[1]
  Target coverage, over-expression category of source gene, ACC (N = 79): C (>=5% of tumors above the cutoff, but <20%)
  Target coverage, over-expression category of source gene, BLCA (N = 408): B (>=20% of tumors above the cutoff, but <50%)
  Target coverage, over-expression category of source gene, CESC (N = 307): A (>=50% of tumors above the cutoff)
  Target coverage, over-expression category of source gene, HNSC (N = 521): B (>=20% of tumors above the cutoff, but <50%)
  Target coverage, over-expression category of source gene, DLBC (N = 48): B (>=20% of tumors above the cutoff, but <50%)
[2]
  ENTITIES: NSCLC, GC, GB, RCC, HCC

## 394: peptide found in FANCI (gene looked up) (FYQPKIQQF; listed as Homo sapiens) [compound 394]
[1]
  Target coverage, over-expression category of source gene, BLCA (N = 408): B (>=20% of tumors above the cutoff, but <50%)
  Target coverage, over-expression category of source gene, CESC (N = 307): A (>=50% of tumors above the cutoff)
  Target coverage, over-expression category of source gene, CHOL (N = 36): C (>=5% of tumors above the cutoff, but <20%)
  Target coverage, over-expression category of source gene, HNSC (N = 521): B (>=20% of tumors above the cutoff, but <50%)
  Target coverage, over-expression category of source gene, LGG (N = 534): C (>=5% of tumors above the cutoff, but <20%)
  Target coverage, over-expression category of source gene, DLBC (N = 48): A (>=50% of tumors above the cutoff)
  Target coverage, over-expression category of source gene, MESO (N = 87): C (>=5% of tumors above the cutoff, but <20%)
[2]
  ENTITIES: GB, PCA, HCC, NSCLC, GC

## 397: peptide found in KIF2C (gene looked up) (IYNGKLFDL; listed as Homo sapiens) [compound 397]
[1]
  Target coverage, over-expression category of source gene, BLCA (N = 408): A (>=50% of tumors above the cutoff)
  Target coverage, over-expression category of source gene, CESC (N = 307): A (>=50% of tumors above the cutoff)
  Target coverage, over-expression category of source gene, CHOL (N = 36): C (>=5% of tumors above the cutoff, but <20%)
  Target coverage, over-expression category of source gene, HNSC (N = 521): A (>=50% of tumors above the cutoff)
  Target coverage, over-expression category of source gene, LGG (N = 534): C (>=5% of tumors above the cutoff, but <20%)
  Target coverage, over-expression category of source gene, DLBC (N = 48): A (>=50% of tumors above the cutoff)
  Target coverage, over-expression category of source gene, MESO (N = 87): C (>=5% of tumors above the cutoff, but <20%)
[2]
  ENTITIES: GB, NSCLC, GC

## 398: peptide found in KIF2C (gene looked up) (IYNGKLFDLL; listed as Homo sapiens) [compound 398]
[1]
  Target coverage, over-expression category of source gene, BLCA (N = 408): A (>=50% of tumors above the cutoff)
  Target coverage, over-expression category of source gene, CESC (N = 307): A (>=50% of tumors above the cutoff)
  Target coverage, over-expression category of source gene, CHOL (N = 36): C (>=5% of tumors above the cutoff, but <20%)
  Target coverage, over-expression category of source gene, HNSC (N = 521): A (>=50% of tumors above the cutoff)
  Target coverage, over-expression category of source gene, LGG (N = 534): C (>=5% of tumors above the cutoff, but <20%)
  Target coverage, over-expression category of source gene, DLBC (N = 48): A (>=50% of tumors above the cutoff)
  Target coverage, over-expression category of source gene, MESO (N = 87): C (>=5% of tumors above the cutoff, but <20%)
[2]
  ENTITIES: CRC, GC, RCC, GB, PCA, HCC, NSCLC

## 399: peptide found in MET (gene looked up) (SYIDVLPEF; listed as Homo sapiens) [compound 399]
[1]
  Target coverage, over-expression category of source gene, KICH (N = 66): B (>=20% of tumors above the cutoff, but <50%)
  Target coverage, over-expression category of source gene, MESO (N = 87): C (>=5% of tumors above the cutoff, but <20%)
[1]; Kidney renal papillary cell carcinoma
  Target coverage, over-expression category of source gene, KIRP (N = 291): A (>=50% of tumors above the cutoff)
[2]
  ENTITIES: HCC, NSCLC, GC, RCC, GB, PCA
